The source of these data is PubChem BioAssay AID1508600 (Functional Genomics Laboratory (NCATS/FGL), 2020).

The campaign covered roughly 53,000 sequences. About 3,700 (7%) were called active.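 How the source made its calls: active means gene knockdowns whose robust z-score for IL-1 alpha signal is at least 2 or at most -2, so actives lie on both sides; inactive means the rest.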 The list shows a part of the results.

A short description of the assay: Components of the Cytosolic LPS Sensing Pathway: Gene Identification via Genome-wide siRNA Screen.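 Further: robust z of the log signal after scaling to non-targeting control siRNA wells of the plate.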 The note with it: RAW264.7 macrophages, IL-1a HTRF, actives lie on both sides, screened at 100 nM (by protocol), cells primed 5 h with Pam3CSK4 first. The method in brief:
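Knockdown: 100 nM siRNA, 48h, RAW264.7. Stimulation: Pam3CSK4 5 h, then LipidA via TransIT-TKO 24 h. Output: supernatant IL-1a HTRF, negative-control-normalized, log robust z-score; viability by CellTiter-Glo.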
(In general: In TR-FRET formats the signal depends on donor and acceptor labels being close together.)
GCAUUUUGUGGAAAAGGCUTT against Olfr582: the z-score is active: -2.19.
In the case of CGUGGAGAACUGGUAUCAGTT against Psg17, the z-score was inactive: -0.699.
The value for GGAGAUCCAGAAGAGACGATT against Mcub was inactive: -0.97.
Regarding GGAUUGAUUUUUGGAGGGCTT against Fxyd4, the z-score was inactive: 0.569.
The value for GGACACUUUACUUUUGAGATT against Lyrm1 was inactive: -0.162; that for GGUUUCAAACUCUUGUAAUTT against Pgrmc1 was inactive: -0.139; that for GGAACAUAUACUGGGCAACTT against Tcl1b1 was inactive: 1.75.
As for GCACUUACUCAAAUGGAACTT against Cyp2j6, the figure is inactive: -0.396.
As for GCUUCCCUGGACCCAAUGUTT against Artn, the figure is inactive: 1.49.
Take GACAAAACAAUUUCCUAUGTT against Olfr805: the z-score is inactive: -0.318.
Turning to GGCGACUCUGUCACAAUUUTT against C1rl, the z-score was inactive: 0.578.
The value for GGUGGUUUUAAAGUGCUGGTT against Tmprss11b was inactive: -1.08; that for CCACGCCAUCUUACUGACUTT against Adamts16 was inactive: -0.336; that for GGUGUUGAAAUAAUUUCUCTT against Phospho2 was inactive: -0.285.
For GGACUUGUCCGCUCAUUGGTT against Usp54, the z-score is inactive: -1.13.
For CCUGUCAUCUAUGCUAUGATT against Npnt, the z-score was inactive: 0.0124.
GGCAGCAUUGAGUGUGUGATT against Asb13: the z-score was active: 2.53.
As to GGAUUCUGUGAUUUGUCUATT against Prss39, the z-score was inactive: -0.331.
As for GCAUUAUGCAAAUGAGGAUTT against Phtf2, the figure is inactive: -0.52; as for GGCAGGAAUCUAUAUUAAUTT against Slc17a3, inactive: 0.48; as for GCGCAAUAUAGAGUCAUCATT against Rnls, active: -2.83.
Consider GGCUGAAUUUGAUAAAACCTT against Oxr1, for which the z-score is inactive: -0.77.
As for GGAGACAUCAACAAGUUGATT against Fam167a, the figure is inactive: -0.772; as for GGAAAAAGCUCAAAGGCGATT against Gap43, inactive: -0.216.
For GGAAAAGAAGCUACGCUUGTT against Rrp9, the z-score was inactive: -0.0692.
In the case of CCAUACCAUUAGUGUCGGCTT against Acot11, the z-score was inactive: -1.89.
In the case of GGAUGUUCAACCUAAACGATT against Ferd3l, the z-score is inactive: -0.347.
As for CCUCCGAAUUGCCCUUCUGTT against Gtf2h4, the figure is inactive: 0.0232; as for CCUGACAGCACUUUGUGGATT against Arhgef4, inactive: 0.481.
With CCAAACGAUUUAUAAUCAGTT against Ints4, the z-score is inactive: 1.49.
In the case of CCCGUCUCCUAAUUUUAACTT against Fgf17, the z-score is inactive: -0.762.
In the case of UGGUUCUACAGCAUUUGUGTT against Olfr954, the z-score was inactive: -0.67.
As for GGCUACAAUAGCUGUGGUATT against Magea4, the figure is inactive: -0.237; as for GGAUCAAGUGGCUGAUUUGTT against Ube2t, inactive: -0.457.
As for “GGUUAGGGUGCGUGUUACUTT against 2310033P09Rik”, the figure is inactive: 0.358; as for GGUUUUAAUGGUACGAUUUTT against Nr1d2, inactive: 0.36; as for GGGAAGAGAAACACAGAUGTT against Ooep, inactive: 0.0686.
GGAACUGAAUCCAGAAAUGTT against Ldhb: the z-score was inactive: -0.609.
The value for GGUUUCUCGACCUACAUUUTT against Lsm14b was inactive: -1.32; that for GGUUACUUGAGUGAAUAAUTT against Asb12 was inactive: 1.11.
The value for GGAAAGGCUCAAUGAGAGCTT against Nipa2 was active: -3.3.
On to CGCACAGUGGACAUUUGAGTT against Nsl1, for which the z-score is inactive: -1.07.
As for GCUGAUCUAACCAACAGCATT against Mark2, the figure is inactive: -1.32; as for GCCAUAGAAAGGAUUCAUATT against Epb41l4a, inactive: -0.131; as for UGCAAUCCGGAUCAAACGUTT against Cebpb, active: -2.03.
Consider GGUGUCUGACUUUAAGAAGTT against Foxred1, for which the z-score is inactive: -0.247.
GGAAUGAAGUUCACAAUAATT against Ide: the z-score was inactive: 0.173.
The value for CGGUUAAAAGCACUGCUCGTT against Tmc1 was inactive: 1.68.
Turning to GUUCAAGCAGAGGCAGACUTT against Pde6h, the z-score is inactive: -2.
As for AGAAACUGUUGGGUGAAAATT against Olfr329, the figure is inactive: -0.11; as for GGUUGUGUUUUGAUAGGAATT against Slfn5, inactive: -0.353.
The value for GCAUGUAUAACAGACCCAUTT against Tex47 was inactive: 0.928; that for GGAGAGCAUCCUGAAGACGTT against Arl13b was inactive: -0.363; that for GCUACUUGCUCAUACAAAGTT against Rag2 was inactive: 0.65.
As to GCUUCUGGUUUUCGGCUAUTT against Sfswap, the z-score is inactive: 0.427.
As for GCAAGCAAUAGAGGAACCUTT against Rnf38, the figure is inactive: 0.0643; as for GGAUCAACAGAGGUUGGCATT against Aldh1a7, active: -2.03; as for GGAUUUUUUUUCCAGAAGCTT against Apln, inactive: 0.9.
As for CCUGUUUUCCGACUUGUUGTT against Il4ra, the figure is inactive: 0.809; as for GCUAACAGUGGGUUAUUUATT against Tgfb2, inactive: 0.123; as for CGUGUACCAGCUACCUAAGTT against Phc2, inactive: -1.31.
As for GCCUCUUGCCUGAUUACCUTT against Scgb1b2, the figure is inactive: 1.53.
For AAGAGCAUUAGUGCACAGATT against Gm5334, the z-score is inactive: 0.267.
The value for GCUGAACGACAAUAAGGGCTT against Ltbp1 was inactive: 0.467; that for CCCGAAACAUCAUCAAGUATT against Olfml2b was inactive: 1.61; that for CGUACAAGACCAACAGAAGTT against Prag1 was inactive: -0.825.
On to GGGAGAAAAUCAAAGUAAUTT against Trim13, for which the z-score is inactive: -0.464.
The value for GGGAUUUUAAGAGUUGACUTT against Cyp3a41a was inactive: -1.41.
